Test results taken from patent publication US11905338B2, “Peptides for use as cell-penetrating peptides” (CENTRE NATIONAL DE LA RECHERCHE SCIENTIFIQUE, priority 2018, dated 2024).
For some of these results: Not every detail of the peptide structures is certain; ends, links or a residue may be inferred. Some of these results come from one statement about several compounds together. Where no end group is shown, it is not given here.

How the values were obtained:
[1] = tested on: firefly luciferase (FLuc) in U87 cells; assay: Luciferase reporter gene silencing assay; assay type: cell-based, human; conditions: R=20, siFLuc 20 nM
Procedure: Transfection experiments. For Luciferase assay, the different cells (5,000 cells per well) were seeded 24 h before experiment into 96-well plates using the corresponding medium as described above. […] In the meantime, the growth medium covering the cells was replaced by 70 μL of fresh pre-warmed serum-free DMEM. […] After the addition of DMEM supplemented with 20% FBS (final FBS concentration=10%), cells were further incubated for 36 h and finally lysed for the luciferase detection. For transfection in the presence of serum, cells were incubated with nanoparticles in DMEM+10% FBS for 1.5 h at 37° C., and then DMEM supplemented with 10% FBS were added to the cells which were further incubated for 36 h before the final cell lyses for the luciferase detection.
Luciferase reporter gene silencing assay. The evaluation of siRNA delivery using the different vectors was carried out by measuring the remaining luciferase firefly (FLuc) activity in cell lysates. Briefly, after 36 h, the medium covering the cells was carefully removed and replaced by 50 μL of 0.5× Passive Lysis Buffer (PLB; Promega). After 30 min of shaking at 4° C., plates containing the cells were centrifuged (10 min, 1,800 rpm, 4° C.) and 5 μL of each cell lysate supernatant were finally transferred into a white 96-well plate. For the U87-FLuc-NLuc cells, both luciferase activities were quantified using a plate-reading luminometer (POLARstar Omega, BMG Labtech) using half-diluted Dual Luciferase Assay Reagents (Promega) as reported elsewhere (G. Aldrian, et al., (2017) J. Control. Release Off. J. Control. Release Soc. 256, 79-91). The results were expressed as percentage of relative light units (RLU) for each luciferase normalized first to non-treated cells (% FLuc and % NLuc) and then normalized to the value of % NLuc to obtain the Relative Luc Activity (% FLuc/% NLuc).
Cellular activity of CPP-based nanoparticles was evaluated in a luciferase screening assay, as previously described (L. N. Patel, et al., (2007) Pharm. Res. 24, 1977-1992; A. Elmquist, et al., (2001) Exp. Cell Res. 269, 237-244)). The knock-down efficiency of the different CPP:siRNA nanoparticles was performed on U87 cell line stably transfected for constitutive expression of FLuc/NLuc reporter genes (U87-FRT-CMV/Fluc-CMV/iRFP-IRES-NLuc).

[2] = Dynamic light scattering and zeta potential of nanoparticles; assay type: physicochemical; conditions: CPP:siRNA R = 20, 5% glucose
Procedure: Dynamic light scattering (DLS) and Zeta potential (ZP). CPPs:siRNA nanoparticles were evaluated with a Zetasizer NanoZS (Malvern) in terms of mean size (Z-average) of the particle distribution and of homogeneity (PdI). Zeta potential was determined in 5% glucose+5 mM of NaCl. All results were obtained from three independent measurements (three runs for each measurement at 25° C.).

Substance | Luciferase knock-down [1] | PdI [2] | Mean size (nm) I (%) ([2]; intensity) [nm] | Mean size (nm) Nb (%) ([2]; number) [nm]
LLRLLRWWRLLRLL (CPP3) | more than 70% |  |  | 
LLRLLRWWWRLLRLL-NH2 [CPP2, LLRLLRWWWRLLRLL] | more than 70% |  |  | 
LLRLLRWWWWRLLRLL [CPP4] | more than 70% |  |  | 
LLWRLWRLLWRLWRLL-NH2 [CPP1, LLWRLWRLLWRLWRLL] | more than 70% |  |  | 
RLLRLLWWWLLRLLR-NH2 [CPP2-4R, RLLRLL-WWW-LLRLLR] |  | 0.37 ± 0.03 | 65.0 ± 1.8 | 26.0 ± 4.3
